This is an account of results in patent US6448270B1, “4-substituted piperidine analogs and their use as subtype selective NMDA receptor antagonists” (Warner-Lambert Company, priority 1995, dated 2002).

Amino acid sequences for entries named in this document (tags omitted). Residues count along the entry.
UniProt Q00960, 27-1482 limits assumed: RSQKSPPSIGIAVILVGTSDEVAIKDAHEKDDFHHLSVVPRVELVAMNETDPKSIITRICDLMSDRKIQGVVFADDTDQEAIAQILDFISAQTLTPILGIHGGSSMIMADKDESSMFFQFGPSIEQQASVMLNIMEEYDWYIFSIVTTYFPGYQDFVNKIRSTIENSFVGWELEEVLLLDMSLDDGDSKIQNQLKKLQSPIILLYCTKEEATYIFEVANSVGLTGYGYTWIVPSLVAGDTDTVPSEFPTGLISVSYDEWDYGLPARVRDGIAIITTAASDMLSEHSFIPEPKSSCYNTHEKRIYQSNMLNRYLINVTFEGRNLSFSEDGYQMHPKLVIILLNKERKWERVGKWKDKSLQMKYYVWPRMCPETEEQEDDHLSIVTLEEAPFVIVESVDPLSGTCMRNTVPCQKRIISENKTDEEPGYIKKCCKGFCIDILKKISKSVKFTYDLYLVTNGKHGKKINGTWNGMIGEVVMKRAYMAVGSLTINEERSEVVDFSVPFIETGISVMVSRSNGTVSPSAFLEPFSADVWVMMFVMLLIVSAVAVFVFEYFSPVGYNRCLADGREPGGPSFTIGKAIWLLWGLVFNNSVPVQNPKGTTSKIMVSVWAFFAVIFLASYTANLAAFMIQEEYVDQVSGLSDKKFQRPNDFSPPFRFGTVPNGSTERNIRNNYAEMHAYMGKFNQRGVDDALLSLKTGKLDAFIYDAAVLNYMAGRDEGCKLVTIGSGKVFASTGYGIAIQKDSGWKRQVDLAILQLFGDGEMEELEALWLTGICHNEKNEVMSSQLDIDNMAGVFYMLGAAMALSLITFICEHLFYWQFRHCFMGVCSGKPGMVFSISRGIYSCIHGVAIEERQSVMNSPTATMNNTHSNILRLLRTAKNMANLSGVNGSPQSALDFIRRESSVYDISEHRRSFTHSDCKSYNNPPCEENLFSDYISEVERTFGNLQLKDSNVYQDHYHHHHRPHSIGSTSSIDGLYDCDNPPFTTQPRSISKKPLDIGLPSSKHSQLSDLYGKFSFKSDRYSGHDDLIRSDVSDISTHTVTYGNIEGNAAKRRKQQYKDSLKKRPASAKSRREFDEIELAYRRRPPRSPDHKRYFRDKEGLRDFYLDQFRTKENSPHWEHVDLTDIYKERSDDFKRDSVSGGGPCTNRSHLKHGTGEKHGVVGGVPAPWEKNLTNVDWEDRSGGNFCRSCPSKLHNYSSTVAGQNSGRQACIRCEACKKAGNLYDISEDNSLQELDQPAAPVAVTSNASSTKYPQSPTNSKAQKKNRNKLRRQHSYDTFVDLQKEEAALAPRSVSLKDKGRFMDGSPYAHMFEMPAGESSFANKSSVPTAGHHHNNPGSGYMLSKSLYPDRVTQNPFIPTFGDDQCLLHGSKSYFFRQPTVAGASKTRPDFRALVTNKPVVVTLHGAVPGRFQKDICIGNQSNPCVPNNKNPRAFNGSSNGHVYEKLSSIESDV

The match of structure and compound is tentative.

The experiment concerns the target NR1A/NR2B NMDA receptor (Rattus norvegicus, UniProt P35439+Q00960). Briefly: Electrophysiological assay, cloned NMDA receptor subunits expressed in Xenopus oocytes (1A/2B). Format: cell-based. The note with it: read-out: Subunits (IC50 (μM)) 1A/2B, mean IC50, inhibition of NMDA-activated membrane current responses, glutamate 100 μM + glycine. The text has this: Electrophysiological Assays at NMDA Receptor Subunits
cDNA clones encoding the NR1A, NR2A, NR2B, NR2C and NR2D rat NMDA receptor subtypes were provided by Dr. P. H. Seeburg (see, Moriyoshi et al., Nature (Lond.) 354:31-37 (1991); Kutsuwada et al., Nature (Lond.) 358:36-41 (1992) Monyer et al., Science (Washington, D.C.) 256:1217-1221 (1992); Ikeda et al., FEBS Lett. 313:34-38 (1992); Ishii et al., J. Biol. Chem. 268:2836-2843 (1993) for details of these clones or their mouse homologs). The clones were transformed into appropriate host bacteria and plasmid preparations were made with conventional DNA purification techniques. […]
Electrical recordings were made using a conventional two-electrode voltage clamp (Dagan TEV-200) over periods ranging between 3-21 days following injection. […] Inhibitory potency of the novel antagonists was assessed on responses elicited by fixed concentrations of glutamate and glycine, by measuring reductions in current induced by progressively increasing concentrations of antagonist. […]
in which Icontrol is the current evoked by agonists alone, pIC50=−log IC50, IC50 is the concentration of antagonist that produces half maximal inhibition, and n is the slope factor. […] For incomplete curves analysis by fitting was unreliable and IC50 values were calculated by simple regression over linear portions of the curves (Origin: Microcal Software).

In the case of `CS(=O)(=O)Nc1ccc(C#CCCN2CCC(Sc3ccccc3)CC2)cc1`, the IC50 came out at 0.4 µM.
